Measurements: PMC5338925
Results are given in words; binding and its absence hold for the method and conditions named. For some assays here: In cells and extracts the contact can be indirect. Some results given as binding are weak or reduced against the parent protein; the word gives no strength. Each block holds one substance with its values, some of them ahead of it.

Chains of the proteins cited; added tags and fusions are not shown. Lines headed by an entry give the natural chain unless they say otherwise; changes in a name come on top. A line that says so, or that is headed by a name, gives the form on record, which may keep a tag or linker. Residues count along the entry.
UniProt Q08211: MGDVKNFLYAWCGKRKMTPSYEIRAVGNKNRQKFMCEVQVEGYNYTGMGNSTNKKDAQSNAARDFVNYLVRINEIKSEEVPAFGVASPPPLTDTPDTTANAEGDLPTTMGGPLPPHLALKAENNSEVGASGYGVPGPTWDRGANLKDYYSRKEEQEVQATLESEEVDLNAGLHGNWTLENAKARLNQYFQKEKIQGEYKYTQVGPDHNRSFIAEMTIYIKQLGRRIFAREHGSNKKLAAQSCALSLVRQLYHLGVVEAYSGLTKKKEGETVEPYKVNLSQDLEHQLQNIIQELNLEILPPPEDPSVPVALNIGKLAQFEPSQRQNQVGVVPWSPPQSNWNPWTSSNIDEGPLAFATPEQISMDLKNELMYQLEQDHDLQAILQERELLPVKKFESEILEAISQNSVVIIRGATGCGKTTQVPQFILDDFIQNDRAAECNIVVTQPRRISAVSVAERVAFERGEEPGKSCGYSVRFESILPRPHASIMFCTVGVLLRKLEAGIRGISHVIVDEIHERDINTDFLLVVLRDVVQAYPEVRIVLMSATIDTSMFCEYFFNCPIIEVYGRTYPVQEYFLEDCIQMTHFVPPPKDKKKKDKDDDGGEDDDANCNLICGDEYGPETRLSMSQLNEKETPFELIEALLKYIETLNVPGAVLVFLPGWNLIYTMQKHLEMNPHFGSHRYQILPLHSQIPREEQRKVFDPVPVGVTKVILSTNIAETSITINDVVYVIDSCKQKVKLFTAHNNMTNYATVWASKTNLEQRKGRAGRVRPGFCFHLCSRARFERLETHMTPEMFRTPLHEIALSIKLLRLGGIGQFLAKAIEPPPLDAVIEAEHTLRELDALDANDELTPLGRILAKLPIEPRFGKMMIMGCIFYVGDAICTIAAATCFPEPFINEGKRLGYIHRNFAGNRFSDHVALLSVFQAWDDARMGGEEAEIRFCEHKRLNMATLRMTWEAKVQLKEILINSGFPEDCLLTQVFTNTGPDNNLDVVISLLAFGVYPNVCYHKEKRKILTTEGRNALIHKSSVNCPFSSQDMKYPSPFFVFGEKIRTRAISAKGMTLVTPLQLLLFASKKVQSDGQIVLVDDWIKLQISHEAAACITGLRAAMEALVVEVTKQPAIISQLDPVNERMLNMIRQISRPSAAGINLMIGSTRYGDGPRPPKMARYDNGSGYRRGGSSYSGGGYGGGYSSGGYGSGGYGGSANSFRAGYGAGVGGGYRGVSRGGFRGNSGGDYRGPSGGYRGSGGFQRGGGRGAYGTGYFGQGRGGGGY
UniProt Q00839: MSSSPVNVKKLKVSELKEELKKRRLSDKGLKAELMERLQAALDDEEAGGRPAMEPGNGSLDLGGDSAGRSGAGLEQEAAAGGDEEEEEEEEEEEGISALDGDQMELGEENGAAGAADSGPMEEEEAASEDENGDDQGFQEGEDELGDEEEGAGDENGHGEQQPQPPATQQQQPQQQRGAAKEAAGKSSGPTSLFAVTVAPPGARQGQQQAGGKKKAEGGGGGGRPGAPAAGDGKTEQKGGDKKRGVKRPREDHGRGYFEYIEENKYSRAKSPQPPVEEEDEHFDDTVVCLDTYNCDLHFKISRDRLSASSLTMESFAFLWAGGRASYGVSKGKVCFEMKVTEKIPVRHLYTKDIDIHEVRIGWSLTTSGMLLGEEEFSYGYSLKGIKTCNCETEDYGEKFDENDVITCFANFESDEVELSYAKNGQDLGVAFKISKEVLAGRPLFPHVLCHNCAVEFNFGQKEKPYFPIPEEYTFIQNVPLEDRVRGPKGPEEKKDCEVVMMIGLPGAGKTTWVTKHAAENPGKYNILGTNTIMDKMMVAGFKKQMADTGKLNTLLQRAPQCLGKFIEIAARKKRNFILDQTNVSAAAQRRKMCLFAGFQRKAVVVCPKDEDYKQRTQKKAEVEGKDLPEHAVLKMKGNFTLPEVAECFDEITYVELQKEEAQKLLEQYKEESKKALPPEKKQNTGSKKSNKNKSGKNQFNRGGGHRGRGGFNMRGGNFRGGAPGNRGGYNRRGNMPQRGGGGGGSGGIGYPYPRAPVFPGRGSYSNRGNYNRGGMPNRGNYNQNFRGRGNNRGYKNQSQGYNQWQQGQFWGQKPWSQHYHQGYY
Nup98 (endogenous) (human (endogenous in HEK293T and HeLa)) (P52948, residues 1-880): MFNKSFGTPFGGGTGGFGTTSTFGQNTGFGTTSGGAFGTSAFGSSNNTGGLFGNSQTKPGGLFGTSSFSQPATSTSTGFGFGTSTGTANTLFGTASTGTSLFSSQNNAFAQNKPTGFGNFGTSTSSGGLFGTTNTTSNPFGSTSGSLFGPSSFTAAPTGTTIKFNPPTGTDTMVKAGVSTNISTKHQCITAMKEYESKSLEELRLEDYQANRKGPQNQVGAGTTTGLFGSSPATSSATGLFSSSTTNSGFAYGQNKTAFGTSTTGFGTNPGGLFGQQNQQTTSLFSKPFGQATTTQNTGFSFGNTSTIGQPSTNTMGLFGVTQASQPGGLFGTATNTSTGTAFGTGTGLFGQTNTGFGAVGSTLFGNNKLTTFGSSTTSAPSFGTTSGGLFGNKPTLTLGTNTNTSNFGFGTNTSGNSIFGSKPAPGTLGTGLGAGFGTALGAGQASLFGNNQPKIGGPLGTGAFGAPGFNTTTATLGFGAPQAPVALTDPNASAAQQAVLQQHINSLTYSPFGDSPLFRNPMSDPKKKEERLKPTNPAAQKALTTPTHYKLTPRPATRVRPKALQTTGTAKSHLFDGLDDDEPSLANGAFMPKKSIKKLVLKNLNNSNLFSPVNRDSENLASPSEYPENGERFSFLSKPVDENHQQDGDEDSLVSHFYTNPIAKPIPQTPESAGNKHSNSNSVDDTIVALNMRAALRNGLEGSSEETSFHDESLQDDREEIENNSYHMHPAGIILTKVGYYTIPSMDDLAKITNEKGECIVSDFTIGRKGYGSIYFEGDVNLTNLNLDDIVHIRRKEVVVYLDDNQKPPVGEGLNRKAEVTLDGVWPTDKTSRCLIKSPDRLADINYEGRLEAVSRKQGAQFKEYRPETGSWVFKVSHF
GST-Nup98^1–863 (P52948, form named): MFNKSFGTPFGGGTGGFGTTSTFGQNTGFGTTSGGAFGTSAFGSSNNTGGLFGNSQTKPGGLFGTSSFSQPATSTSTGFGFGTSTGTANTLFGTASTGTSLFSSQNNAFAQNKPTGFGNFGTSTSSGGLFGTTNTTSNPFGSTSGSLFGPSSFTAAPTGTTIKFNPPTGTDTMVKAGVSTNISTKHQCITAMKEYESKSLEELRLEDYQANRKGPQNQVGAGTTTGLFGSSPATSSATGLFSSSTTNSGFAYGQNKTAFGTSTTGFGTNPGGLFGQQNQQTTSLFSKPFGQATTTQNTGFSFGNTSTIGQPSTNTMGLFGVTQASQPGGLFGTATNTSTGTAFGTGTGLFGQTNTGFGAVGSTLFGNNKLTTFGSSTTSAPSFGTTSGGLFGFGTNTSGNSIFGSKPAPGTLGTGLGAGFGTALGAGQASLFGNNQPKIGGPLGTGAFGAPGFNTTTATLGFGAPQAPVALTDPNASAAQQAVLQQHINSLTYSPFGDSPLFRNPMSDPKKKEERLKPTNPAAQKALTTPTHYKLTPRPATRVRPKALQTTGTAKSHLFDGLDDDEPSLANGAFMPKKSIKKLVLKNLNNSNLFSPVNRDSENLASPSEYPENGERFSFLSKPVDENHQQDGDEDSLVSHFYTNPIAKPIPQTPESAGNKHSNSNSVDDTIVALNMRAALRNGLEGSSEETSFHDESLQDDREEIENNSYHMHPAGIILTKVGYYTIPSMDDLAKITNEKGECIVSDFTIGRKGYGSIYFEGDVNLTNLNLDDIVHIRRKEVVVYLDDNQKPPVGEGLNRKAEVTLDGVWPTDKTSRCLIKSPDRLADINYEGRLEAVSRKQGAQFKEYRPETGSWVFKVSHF

Tests used:
[1] = target: DHX9 (endogenous) (human (endogenous in HEK293T and HeLa)) (UniProt Q08211); test: co-IP; endogenous Nup98, DHX9 and hnRNP U immunoprecipitated with specific antibodies from whole cell lysates (NP-40 cell lysis buffer, 250 mM NaCl); anti-GFP as control; western blot
[2] = target: hnRNP U (endogenous) (human (endogenous in HEK293T)) (UniProt Q00839); test: as above
[3] = target: DHX9 (endogenous) (human (endogenous in HEK293T and HeLa)) (UniProt Q08211); test: co-IP; Nup98 or DHX9 immunoprecipitated from the nucleoplasmic fraction of HeLa cell nuclei; 125 mM NaCl, 0.5% NP-40 washes; western blot
[4] = target: Nup98 (endogenous) (human (endogenous in HEK293T and HeLa)) (UniProt P52948); test: co-IP; Nup98 affinity purified from HEK293T lysate (with RNase inhibitor); bead-bound complexes incubated with or without RNase A at 37 °C for 30 min; western blot
GST-Nup98^1–863 (human) = GST-Nup98^1–863 (human) (UniProt P52948); test: bead halo assay; GST-Nup98 1-863 held on glutathione magnetic agarose beads (bait); DHX9 domains with C-terminal eGFP (prey) detected by fluorescence microscopy; PBS-T, 10 min, 4 °C; pre-treated with RNase A, poly I:C RNA or buffer alone; both purified

binding [1]: binds
binding [2]: binds
binding [3]: binds
Substance: Nup98 (endogenous) (from UniProt P52948 1-880)

binding [4]: binds
Substance: PRKDC (from UniProt P78527 1-4128)

binding (GST-Nup98^1–863 (human)): no binding
Substance: DHX9 381–820 tagged with eGFP (from UniProt Q08211 381-820) (domain or fragment)
